Measurements: paper doi:10.1101/2025.11.18.689056
Results are given in words; binding and its absence hold for the method and conditions named. In cells and extracts the contact can be indirect. Some results given as binding are weak or reduced against the parent protein; the word gives no strength.

Assays:
[1] = molecular target: PRP8 (Pre-mRNA processing factor 8) (human (endogenous in MCF7)) (UniProt Q6P2Q9); assay: co-IP
[2] = molecular target: FRG1 (FSHD Region Gene 1) (human (endogenous in MCF7)) (UniProt Q14331); assay: co-IP

Row | binding [1] | binding [2] | Binder
1 | binds |  | CWC22 (Spliceosome associated protein homolog) (protein, UniProt Q9HCG8 1-908) MKSSVAQIKPSSGHDRRENLNSYQRNSSPEDRYEEQERSPRDRDYFDYSRSDYEHSRRGRSYDSSMESRNRDREKRRERERDTDRKRSRKSPSPGRRNPETSVTQSSSAQDEPATKKKKDELDPLLTRTGGAYIPPAKLRMMQEQITDKNSLAYQRMSWEALKKSINGLINKVNISNISIIIQELLQENIVRGRGLLSRSVLQAQSASPIFTHVYAALVAIINSKFPQIGELILKRLILNFRKGYRRNDKQLCLTASKFVAHLINQNVAHEVLCLEMLTLLLERPTDDSVEVAIGFLKECGLKLTQVSPRGINAIFERLRNILHESEIDKRVQYMIEVMFAVRKDGFKDHPIILEGLDLVEEDDQFTHMLPLEDDYNPEDVLNVFKMDPNFMENEEKYKAIKKEILDEGDTDSNTDQDAGSSEEDEEEEEEEGEEDEEGQKVTIHDKTEINLVSFRRTIYLAIQSSLDFEECAHKLLKMEFPESQTKELCNMILDCCAQQRTYEKFFGLLAGRFCMLKKEYMESFEGIFKEQYDTIHRLETNKLRNVAKMFAHLLYTDSLPWSVLECIKLSEETTTSSSRIFVKIFFQELCEYMGLPKLNARLKDETLQPFFEGLLPRDNPRNTRFAINFFTSIGLGGLTDELREHLKNTPKVIVAQKPDVEQNKSSPSSSSSASSSSESDSSDSDSDSSDSSSESSSEESDSSSISSHSSASANDVRKKGHGKTRSKEVDKLIRNQQTNDRKQKERRQEHGHQETRTERERRSEKHRDQNSSGSNWRDPITKYTSDKDVPSERNNYSRVANDRDQEMHIDLENKHGDPKKKRGERRNSFSENEKHTHRIKDSENFRRKDRSKSKEMNRKHSGSRSDEDRYQNGAERRWEKSSRYSEQSRESKKNQDRRREKSPAKQK
2 |  | binds | UPF1 (Up-frameshift Protein 1) (protein, UniProt Q92900 1-1129) MSVEAYGPSSQTLTFLDTEEAELLGADTQGSEFEFTDFTLPSQTQTPPGGPGGPGGGGAGGPGGAGAGAAAGQLDAQVGPEGILQNGAVDDSVAKTSQLLAELNFEEDEEDTYYTKDLPIHACSYCGIHDPACVVYCNTSKKWFCNGRGNTSGSHIVNHLVRAKCKEVTLHKDGPLGETVLECYNCGCRNVFLLGFIPAKADSVVVLLCRQPCASQSSLKDINWDSSQWQPLIQDRCFLSWLVKIPSEQEQLRARQITAQQINKLEELWKENPSATLEDLEKPGVDEEPQHVLLRYEDAYQYQNIFGPLVKLEADYDKKLKESQTQDNITVRWDLGLNKKRIAYFTLPKTDSGNEDLVIIWLRDMRLMQGDEICLRYKGDLAPLWKGIGHVIKVPDNYGDEIAIELRSSVGAPVEVTHNFQVDFVWKSTSFDRMQSALKTFAVDETSVSGYIYHKLLGHEVEDVIIKCQLPKRFTAQGLPDLNHSQVYAVKTVLQRPLSLIQGPPGTGKTVTSATIVYHLARQGNGPVLVCAPSNIAVDQLTEKIHQTGLKVVRLCAKSREAIDSPVSFLALHNQIRNMDSMPELQKLQQLKDETGELSSADEKRYRALKRTAERELLMNADVICCTCVGAGDPRLAKMQFRSILIDESTQATEPECMVPVVLGAKQLILVGDHCQLGPVVMCKKAAKAGLSQSLFERLVVLGIRPIRLQVQYRMHPALSAFPSNIFYEGSLQNGVTAADRVKKGFDFQWPQPDKPMFFYVTQGQEEIASSGTSYLNRTEAANVEKITTKLLKAGAKPDQIGIITPYEGQRSYLVQYMQFSGSLHTKLYQEVEIASVDAFQGREKDFIILSCVRANEHQGIGFLNDPRRLNVALTRARYGVIIVGNPKALSKQPLWNHLLNYYKEQKVLVEGPLNNLRESLMQFSKPRKLVNTINPGARFMTTAMYDAREAIIPGSVYDRSSQGRPSSMYFQTHDQIGMISAGPSHVAAMNIPIPFNLVMPPMPPPGYFGQANGPAAGRGTPKGKTGRGGRQKNRFGLPGPSQTNLPNSQASQDVASQPFSQGALTQGYISMSQPSQMSQPGLSQPELSQDSYLGDEFKSQIDVALSQDSTYQGERAYQHGGVTGLSQY
